Results on one molecule are retold here after paper PMC9758435.

This test has as its target T1, FLAG-RECQL4 (UniProt O94761).
T1 sequence: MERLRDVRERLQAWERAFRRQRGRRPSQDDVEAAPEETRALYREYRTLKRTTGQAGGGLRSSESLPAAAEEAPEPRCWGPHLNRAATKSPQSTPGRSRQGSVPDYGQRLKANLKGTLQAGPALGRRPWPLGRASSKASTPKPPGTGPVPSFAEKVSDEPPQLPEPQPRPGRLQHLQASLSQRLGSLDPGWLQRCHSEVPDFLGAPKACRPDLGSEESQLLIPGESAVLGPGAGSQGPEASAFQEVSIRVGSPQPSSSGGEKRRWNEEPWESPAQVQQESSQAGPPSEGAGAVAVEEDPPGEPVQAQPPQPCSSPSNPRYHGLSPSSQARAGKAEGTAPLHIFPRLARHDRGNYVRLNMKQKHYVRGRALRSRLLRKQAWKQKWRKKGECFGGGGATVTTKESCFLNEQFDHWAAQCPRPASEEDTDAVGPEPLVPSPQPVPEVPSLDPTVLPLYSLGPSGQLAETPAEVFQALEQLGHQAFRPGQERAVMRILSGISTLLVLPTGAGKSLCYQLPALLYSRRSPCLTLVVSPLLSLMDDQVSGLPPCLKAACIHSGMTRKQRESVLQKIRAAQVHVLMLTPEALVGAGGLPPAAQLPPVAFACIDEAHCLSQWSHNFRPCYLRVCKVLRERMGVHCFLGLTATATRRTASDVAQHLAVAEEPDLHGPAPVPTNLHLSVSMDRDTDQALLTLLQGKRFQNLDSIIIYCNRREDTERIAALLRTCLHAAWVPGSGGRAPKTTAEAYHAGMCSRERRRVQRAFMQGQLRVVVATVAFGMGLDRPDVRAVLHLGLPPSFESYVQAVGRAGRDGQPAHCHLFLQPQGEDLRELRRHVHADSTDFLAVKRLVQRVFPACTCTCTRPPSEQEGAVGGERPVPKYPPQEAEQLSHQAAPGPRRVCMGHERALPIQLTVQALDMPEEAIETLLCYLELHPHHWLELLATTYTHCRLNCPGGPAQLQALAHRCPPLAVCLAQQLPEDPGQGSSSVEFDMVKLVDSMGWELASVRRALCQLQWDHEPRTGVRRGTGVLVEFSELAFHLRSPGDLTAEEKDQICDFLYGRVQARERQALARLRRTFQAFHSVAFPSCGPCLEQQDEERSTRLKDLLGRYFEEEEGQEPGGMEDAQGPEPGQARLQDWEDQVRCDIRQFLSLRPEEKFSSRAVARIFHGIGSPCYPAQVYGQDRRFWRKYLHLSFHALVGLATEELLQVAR
The test is described as follows: co-IP; U2OS cells co-transfected with both tagged proteins, mock- or NCS-treated; lysis in 40 mM Tris-HCl pH 7.5, 100 mM NaCl, 0.2% NP-40, sonication, benzonase at 4 °C for 4 h; IP with anti-HA or anti-GFP antibodies or with anti-FLAG-M2-agarose beads; Western blot.

These are yes or no findings as the source states them, for the method shown. Binding seen in cells or lysates may run through a third protein. Some results given as binding are weak or reduced against the parent protein; the word gives no strength. Sequences can lack the tags named with a protein.

B1: HA-CD1 (USP2 N terminus, residues 1 to 160) (domain or fragment, UniProt O75604 1-160)
chain: MSQLSSTLKRYTESARYTDAHYAKSGYGAYTPSSYGANLAASLLEKEKLGFKPVPTSSFLTRPRTYGPSSLLDYDRGRPLLRPDITGGGKRAESQTRGTERPLGSGLSGGSGFPYGVTNNCLSYLPINAYDQGVTLTQKLDSQSDLARDFSSLRTSDSYR
Take B1: the binding entry is recorded as “binds”.
